US20070248599A1 (priority 2006, published 2007)

Tests used:
[1] = target: T1, human X11α (human) (UniProt Q02410); assay: GST pull-down of X11α from cell lysate, Western blot (FIG. 8B)
T1 sequence: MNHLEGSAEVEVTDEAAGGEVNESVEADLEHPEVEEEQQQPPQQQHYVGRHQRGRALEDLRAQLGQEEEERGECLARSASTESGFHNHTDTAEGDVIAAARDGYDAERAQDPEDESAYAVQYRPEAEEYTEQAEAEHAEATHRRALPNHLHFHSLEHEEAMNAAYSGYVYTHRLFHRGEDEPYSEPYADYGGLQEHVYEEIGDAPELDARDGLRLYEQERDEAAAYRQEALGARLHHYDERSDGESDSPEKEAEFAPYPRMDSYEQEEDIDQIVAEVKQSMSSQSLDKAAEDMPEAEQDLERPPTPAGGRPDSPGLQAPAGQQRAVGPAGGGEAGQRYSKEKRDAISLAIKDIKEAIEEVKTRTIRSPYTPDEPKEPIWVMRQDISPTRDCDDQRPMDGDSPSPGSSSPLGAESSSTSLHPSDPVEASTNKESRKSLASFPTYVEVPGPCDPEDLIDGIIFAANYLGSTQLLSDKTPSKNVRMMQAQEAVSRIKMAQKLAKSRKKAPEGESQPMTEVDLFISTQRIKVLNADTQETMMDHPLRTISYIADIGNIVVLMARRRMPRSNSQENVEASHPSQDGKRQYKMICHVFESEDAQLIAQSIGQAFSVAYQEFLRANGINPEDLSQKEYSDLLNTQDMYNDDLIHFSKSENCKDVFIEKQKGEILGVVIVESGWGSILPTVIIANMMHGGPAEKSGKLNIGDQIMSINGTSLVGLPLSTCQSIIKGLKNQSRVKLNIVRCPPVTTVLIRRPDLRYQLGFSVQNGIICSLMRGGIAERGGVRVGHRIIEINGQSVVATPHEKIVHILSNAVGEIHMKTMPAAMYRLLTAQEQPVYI

[2] = target: T1, human X11α (human); assay: GST pull-down of X11 from cell lysate, Western blot (FIG. 8B); members named in the legend

| Substance | binding [1] | binding [2] |
| --- | --- | --- |
| GST-ApoC3 (926-996), GST fusion of ApoER2 cytosolic domain (murine) | binds | binds |
| GST-ApoC1 (881-996), GST fusion of ApoER2 cytosolic domain (murine) | binds | binds |

These are yes or no findings as the source states them, for the method shown. In cells and extracts the contact can be indirect. Binding can be weak; no strength is given.
